For one substance, binding results are on record in PMC5797633.

Protein sequences, listed by entry. Tags and fused reporters are not part of them.
UniProt O95071: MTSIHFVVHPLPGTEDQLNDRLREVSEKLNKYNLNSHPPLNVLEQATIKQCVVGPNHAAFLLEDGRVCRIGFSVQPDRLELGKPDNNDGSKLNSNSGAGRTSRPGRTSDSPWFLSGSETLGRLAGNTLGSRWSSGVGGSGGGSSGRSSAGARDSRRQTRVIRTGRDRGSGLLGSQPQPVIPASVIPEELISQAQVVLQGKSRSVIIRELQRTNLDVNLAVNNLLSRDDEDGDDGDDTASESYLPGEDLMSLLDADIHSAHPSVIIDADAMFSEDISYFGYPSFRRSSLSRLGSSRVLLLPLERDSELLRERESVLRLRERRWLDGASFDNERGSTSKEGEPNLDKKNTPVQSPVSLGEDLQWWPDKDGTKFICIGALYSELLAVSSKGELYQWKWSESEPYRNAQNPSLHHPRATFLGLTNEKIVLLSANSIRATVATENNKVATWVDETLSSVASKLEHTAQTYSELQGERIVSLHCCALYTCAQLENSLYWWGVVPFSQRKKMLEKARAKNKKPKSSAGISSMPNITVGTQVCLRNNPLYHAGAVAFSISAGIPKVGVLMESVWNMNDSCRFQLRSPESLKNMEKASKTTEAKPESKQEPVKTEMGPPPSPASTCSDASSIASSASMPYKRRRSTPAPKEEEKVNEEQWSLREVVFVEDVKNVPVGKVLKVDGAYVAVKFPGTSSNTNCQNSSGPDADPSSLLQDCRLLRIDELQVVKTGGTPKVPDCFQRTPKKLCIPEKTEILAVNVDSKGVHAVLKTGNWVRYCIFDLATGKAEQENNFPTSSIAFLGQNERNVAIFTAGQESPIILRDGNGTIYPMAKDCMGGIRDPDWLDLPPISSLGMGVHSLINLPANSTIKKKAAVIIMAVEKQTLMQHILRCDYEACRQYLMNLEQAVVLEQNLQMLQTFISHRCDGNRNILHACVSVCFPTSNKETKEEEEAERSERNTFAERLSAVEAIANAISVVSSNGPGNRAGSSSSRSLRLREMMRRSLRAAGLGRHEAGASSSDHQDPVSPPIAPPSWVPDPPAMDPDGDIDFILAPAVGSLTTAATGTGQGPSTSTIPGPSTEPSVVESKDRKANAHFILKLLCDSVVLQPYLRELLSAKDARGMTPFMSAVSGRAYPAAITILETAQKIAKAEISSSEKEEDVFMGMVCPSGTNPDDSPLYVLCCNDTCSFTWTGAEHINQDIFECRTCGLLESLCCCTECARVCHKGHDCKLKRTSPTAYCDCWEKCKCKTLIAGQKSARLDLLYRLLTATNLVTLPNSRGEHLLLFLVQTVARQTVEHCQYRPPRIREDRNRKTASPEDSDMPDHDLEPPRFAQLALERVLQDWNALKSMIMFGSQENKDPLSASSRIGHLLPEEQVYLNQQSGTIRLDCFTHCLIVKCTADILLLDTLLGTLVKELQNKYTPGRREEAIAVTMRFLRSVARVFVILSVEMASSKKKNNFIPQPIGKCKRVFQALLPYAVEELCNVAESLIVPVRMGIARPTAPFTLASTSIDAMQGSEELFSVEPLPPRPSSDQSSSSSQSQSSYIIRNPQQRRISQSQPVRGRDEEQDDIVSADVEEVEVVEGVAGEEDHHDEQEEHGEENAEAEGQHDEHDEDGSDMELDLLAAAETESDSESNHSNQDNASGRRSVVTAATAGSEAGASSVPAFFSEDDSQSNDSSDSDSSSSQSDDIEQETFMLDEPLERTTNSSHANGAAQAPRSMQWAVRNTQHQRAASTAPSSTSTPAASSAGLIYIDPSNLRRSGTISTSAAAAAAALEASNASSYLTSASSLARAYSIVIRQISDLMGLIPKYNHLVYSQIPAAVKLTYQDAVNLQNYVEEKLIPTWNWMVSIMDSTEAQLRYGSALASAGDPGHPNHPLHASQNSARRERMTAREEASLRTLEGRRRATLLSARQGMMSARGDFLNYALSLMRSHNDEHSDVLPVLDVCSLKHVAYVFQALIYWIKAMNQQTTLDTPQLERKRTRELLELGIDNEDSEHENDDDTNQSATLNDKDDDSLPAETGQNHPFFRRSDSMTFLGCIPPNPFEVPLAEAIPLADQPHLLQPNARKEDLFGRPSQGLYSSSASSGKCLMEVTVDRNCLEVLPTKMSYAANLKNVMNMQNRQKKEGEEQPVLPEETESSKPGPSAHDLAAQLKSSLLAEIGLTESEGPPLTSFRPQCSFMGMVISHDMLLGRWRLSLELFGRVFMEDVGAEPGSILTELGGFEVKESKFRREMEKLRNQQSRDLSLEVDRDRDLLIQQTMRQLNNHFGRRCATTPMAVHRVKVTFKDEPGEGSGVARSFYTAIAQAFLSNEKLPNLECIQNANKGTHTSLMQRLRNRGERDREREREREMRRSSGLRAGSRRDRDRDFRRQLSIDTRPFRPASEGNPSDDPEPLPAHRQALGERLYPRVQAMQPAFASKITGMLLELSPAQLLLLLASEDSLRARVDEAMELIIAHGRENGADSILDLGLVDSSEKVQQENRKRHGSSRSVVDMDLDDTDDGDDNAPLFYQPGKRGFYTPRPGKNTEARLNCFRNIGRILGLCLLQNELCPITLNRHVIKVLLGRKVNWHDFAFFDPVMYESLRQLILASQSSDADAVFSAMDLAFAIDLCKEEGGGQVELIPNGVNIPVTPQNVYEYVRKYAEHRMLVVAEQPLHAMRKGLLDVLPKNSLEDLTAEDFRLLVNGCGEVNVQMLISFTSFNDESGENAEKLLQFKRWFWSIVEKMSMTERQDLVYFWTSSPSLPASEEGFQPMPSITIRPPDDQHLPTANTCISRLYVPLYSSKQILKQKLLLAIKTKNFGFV

This experiment deals with S-tagged HBZ (HTLV-1 basic leucine zipper factor), wild type (HTLV-1) (UniProt P0C746). As to the kind of experiment: affinity purification with mass spectrometry; S-tagged bait purified on S beads from lysates of transfected HEK293T cells (NP-40 lysis buffer, MG-132 treated), SDS-PAGE, whole lanes digested with trypsin, MS/MS.

No constants are given. Whether binding was seen depends on the method and setting. Binding seen in cells or lysates may run through a third protein. These calls come from enrichment with a bait or labelling near it, and not all partners need be listed.

On to “UBR5, E3 ubiquitin-protein ligase (endogenous in HEK293T) (from UniProt O95071 1-2799) (enzyme)”, for which the binding result is listed as “binds”.
